# Results reported in patent publication US20240287134A1, “PEPTIDES FOR USE AS SENOTHERAPEUTIC AGENTS” (FUNDACIÓN PROFESOR NOVOA SANTOS, priority 2019, published 2024).
# Not every detail of the peptide structures is certain; ends, links or a residue may be inferred. Where a SMILES comes first, the peptide text is derived from it. The star is where a group is joined. X1 = CN(C)c1ccc2c(c1)Oc1cc(N(C)C)ccc1C21OC(=O)c2ccc(C(=O)*)cc21
# Legend:
# Format in all cases: cell-based, human
# [1] = test system: Cx43 in OA chondrocytes; assay: Immunofluorescence for the detection of Cx43; conditions: 5 μM, against untreated (UT) cells
# Excerpt: FIG. 4. Decrease in Cx43 levels in chondrocytes from patients with OA treated with peptides YSA1, YTP1 and TUB1. […] The decrease in the levels and activity of Cx43 activates the re-differentiation of the chondrocyte and decreases the accumulation of senescent cells, restoring the adult chondrocyte phenotype and tissue regeneration capacity. […] The results obtained were confirmed by western-blot using α-tubulin as loading control. […] (d) Chondrocytes isolated from donors with osteoarthritis were treated for 16 hours with the YTP1 peptide (150 μM) and the Cx43 levels were analysed by western blot, using α-tubulin as loading control. […] (e) Chondrocytes isolated from donors with OA were treated for 16 hours with the 8Arg-YSA1 peptide (5 μM) and the Cx43 levels were analysed by western blot, using α-tubulin as loading control. […] (g) Chondrocytes isolated from donors with OA were treated for 16 hours with the TUB1 peptide (5 μM) and the Cx43 levels were analysed by western blot, using the intensity of the Ponceau stain as loading control.
# Primary cultures of chondrocytes at a confluence of 70-80% were treated with mimetic peptides of Cx43, and fixed with 2-4% paraformaldehyde (PFA, Sigma-Aldrich) in phosphate buffered saline (PBS, MP Biomedicals) for 10 minutes at room temperature. […]
# [2] = test system: gap junctions (GJs) formed by Cx43 in OA chondrocytes; assay: Scrape Loading/Dye Transfer (SL/DT) assay; conditions: 5 μM, 16 hours
# Experimental: FIG. 5. Peptides YSA1 and YTP1 decrease intercellular communication through gap junctions (GJs) formed by Cx43 in OA chondrocytes. (a) Scrape Loading/Dye Transfer (SL/DT) assay in which the transfer of Lucifer Yellow (LY) fluorophore between contact chondrocytes through GJs is studied.
# Cells were seeded in culture plates to an approximate 90% confluence. After treating the cells with the peptides, the medium was removed and washed twice with PBS. The fluorescent compound Lucifer Yellow (LY, Cell Projects Ltd © Kent) 0.4% in PBS was added and two cuts were made, one with a scalpel and the other with a needle on the cell monolayer. The cells were incubated for 5-7 minutes at 37° C. to allow the transfer of the LY between undamaged cells in contact, after which the LY was removed, and cells were washed with PBS. The cells were fixed with 4% formaldehyde for 10 minutes. The visualization was performed in an inverted fluorescence microscope (Inverted Research Microscope Eclipse Ti, Nikon).
# A Scrape Loading/Dye Transfer (SL/DT) test was performed in which the transfer of Lucifer Yellow fluorophore (LY) between contact chondrocytes through GJs was studied.
# [3] = test system: OACs (osteoarthritis chondrocytes); assay: Gene expression analysis (qPCR); conditions: 5 μM, 16 hours, normalized to HPRT1, vs untreated OACs
# [4] = test system: OACs (osteoarthritis chondrocytes); assay: Senescence-associated ß-galactosidase activity (SA-ß-Gal) staining; conditions: 5 μM, 7 days
# [5] = test system: chondrocytes isolated from OA donors cultured as 3D micromasses; assay: Chondrogenic differentiation in 3D micromasses; conditions: 5 μM in chondrogenic medium, 14 days
compound,measurement,setting,value
CC(C)C[C@H](NC(=O)[C@H](C)NC(=O)CNC(=O)[C@H](CO)NC(=O)[C@@H](NC(=O)[C@H](C)NC(=O)[C@H](Cc1c[nH]cn1)NC(=O)[C@H](Cc1ccc(O)cc1)NC(=O)[C@@H]1CCCN1C(=O)[C@H](CC(=O)O)NC(=O)[C@H](CO)NC(=O)[C@H](CCCCN)NC(=O)CNC(=O)[C@H](CCCNC(=N)N)NC(=O)[C@H](CCCNC(=N)N)NC(=O)[C@H](CCCNC(=N)N)NC(=O)[C@H](CCCNC(=N)N)NC(=O)[C@H](CCCNC(=N)N)NC(=O)[C@H](CCCNC(=N)N)NC(=O)[C@H](CCCNC(=N)N)NC(=O)[C@H](CCCNC(=N)N)NC(=O)c1ccc2c(c1)C1(OC2=O)c2ccc(N(C)C)cc2Oc2cc(N(C)C)ccc21)[C@@H](C)O)C(=O)N[C@@H](CO)C(=O)N1CCC[C@H]1C(=O)N[C@@H](C)C(=O)N[C@@H](CCCCN)C(=O)N[C@@H](CC(=O)O)C(=O)O [8Arg-YSA1] (X1-RRRRRRRRGKSDPYHATSGALSPAKD-OH),positivity for Cx43 (immunofluorescence),[1],decrease in positivity
same,cell coupling through GJs (Lucifer Yellow transfer),[2],decrease cell coupling more efficiently
same,COX-2 RNA expression (SASP factor),[3],downregulation
same,IL-1ß RNA expression (SASP factor),[3],downregulation
same,IL-6 RNA expression (SASP factor),[3],downregulation
same,MMP-3 RNA expression (SASP factor),[3],downregulation
same,Twist-1 RNA expression,[3],reduced expression
same,aggrecan (ACAN) RNA expression (cartilage ECM marker),[3],increased expression
same,p16 RNA expression,[3],reduced expression
same,p21 RNA expression,[3],reduced expression
same,number of senescent cells detected by ß-galactosidase staining,[4],reduced significantly the number of senescent cells
same,deposition of proteoglycans in the ECM (blue toluidine stain),[5],increased deposition of proteoglycans
